The text below walks through data of US20050260657A1.

The chains behind the UniProt entries cited, without tags or fusion partners.
UniProt Q14643: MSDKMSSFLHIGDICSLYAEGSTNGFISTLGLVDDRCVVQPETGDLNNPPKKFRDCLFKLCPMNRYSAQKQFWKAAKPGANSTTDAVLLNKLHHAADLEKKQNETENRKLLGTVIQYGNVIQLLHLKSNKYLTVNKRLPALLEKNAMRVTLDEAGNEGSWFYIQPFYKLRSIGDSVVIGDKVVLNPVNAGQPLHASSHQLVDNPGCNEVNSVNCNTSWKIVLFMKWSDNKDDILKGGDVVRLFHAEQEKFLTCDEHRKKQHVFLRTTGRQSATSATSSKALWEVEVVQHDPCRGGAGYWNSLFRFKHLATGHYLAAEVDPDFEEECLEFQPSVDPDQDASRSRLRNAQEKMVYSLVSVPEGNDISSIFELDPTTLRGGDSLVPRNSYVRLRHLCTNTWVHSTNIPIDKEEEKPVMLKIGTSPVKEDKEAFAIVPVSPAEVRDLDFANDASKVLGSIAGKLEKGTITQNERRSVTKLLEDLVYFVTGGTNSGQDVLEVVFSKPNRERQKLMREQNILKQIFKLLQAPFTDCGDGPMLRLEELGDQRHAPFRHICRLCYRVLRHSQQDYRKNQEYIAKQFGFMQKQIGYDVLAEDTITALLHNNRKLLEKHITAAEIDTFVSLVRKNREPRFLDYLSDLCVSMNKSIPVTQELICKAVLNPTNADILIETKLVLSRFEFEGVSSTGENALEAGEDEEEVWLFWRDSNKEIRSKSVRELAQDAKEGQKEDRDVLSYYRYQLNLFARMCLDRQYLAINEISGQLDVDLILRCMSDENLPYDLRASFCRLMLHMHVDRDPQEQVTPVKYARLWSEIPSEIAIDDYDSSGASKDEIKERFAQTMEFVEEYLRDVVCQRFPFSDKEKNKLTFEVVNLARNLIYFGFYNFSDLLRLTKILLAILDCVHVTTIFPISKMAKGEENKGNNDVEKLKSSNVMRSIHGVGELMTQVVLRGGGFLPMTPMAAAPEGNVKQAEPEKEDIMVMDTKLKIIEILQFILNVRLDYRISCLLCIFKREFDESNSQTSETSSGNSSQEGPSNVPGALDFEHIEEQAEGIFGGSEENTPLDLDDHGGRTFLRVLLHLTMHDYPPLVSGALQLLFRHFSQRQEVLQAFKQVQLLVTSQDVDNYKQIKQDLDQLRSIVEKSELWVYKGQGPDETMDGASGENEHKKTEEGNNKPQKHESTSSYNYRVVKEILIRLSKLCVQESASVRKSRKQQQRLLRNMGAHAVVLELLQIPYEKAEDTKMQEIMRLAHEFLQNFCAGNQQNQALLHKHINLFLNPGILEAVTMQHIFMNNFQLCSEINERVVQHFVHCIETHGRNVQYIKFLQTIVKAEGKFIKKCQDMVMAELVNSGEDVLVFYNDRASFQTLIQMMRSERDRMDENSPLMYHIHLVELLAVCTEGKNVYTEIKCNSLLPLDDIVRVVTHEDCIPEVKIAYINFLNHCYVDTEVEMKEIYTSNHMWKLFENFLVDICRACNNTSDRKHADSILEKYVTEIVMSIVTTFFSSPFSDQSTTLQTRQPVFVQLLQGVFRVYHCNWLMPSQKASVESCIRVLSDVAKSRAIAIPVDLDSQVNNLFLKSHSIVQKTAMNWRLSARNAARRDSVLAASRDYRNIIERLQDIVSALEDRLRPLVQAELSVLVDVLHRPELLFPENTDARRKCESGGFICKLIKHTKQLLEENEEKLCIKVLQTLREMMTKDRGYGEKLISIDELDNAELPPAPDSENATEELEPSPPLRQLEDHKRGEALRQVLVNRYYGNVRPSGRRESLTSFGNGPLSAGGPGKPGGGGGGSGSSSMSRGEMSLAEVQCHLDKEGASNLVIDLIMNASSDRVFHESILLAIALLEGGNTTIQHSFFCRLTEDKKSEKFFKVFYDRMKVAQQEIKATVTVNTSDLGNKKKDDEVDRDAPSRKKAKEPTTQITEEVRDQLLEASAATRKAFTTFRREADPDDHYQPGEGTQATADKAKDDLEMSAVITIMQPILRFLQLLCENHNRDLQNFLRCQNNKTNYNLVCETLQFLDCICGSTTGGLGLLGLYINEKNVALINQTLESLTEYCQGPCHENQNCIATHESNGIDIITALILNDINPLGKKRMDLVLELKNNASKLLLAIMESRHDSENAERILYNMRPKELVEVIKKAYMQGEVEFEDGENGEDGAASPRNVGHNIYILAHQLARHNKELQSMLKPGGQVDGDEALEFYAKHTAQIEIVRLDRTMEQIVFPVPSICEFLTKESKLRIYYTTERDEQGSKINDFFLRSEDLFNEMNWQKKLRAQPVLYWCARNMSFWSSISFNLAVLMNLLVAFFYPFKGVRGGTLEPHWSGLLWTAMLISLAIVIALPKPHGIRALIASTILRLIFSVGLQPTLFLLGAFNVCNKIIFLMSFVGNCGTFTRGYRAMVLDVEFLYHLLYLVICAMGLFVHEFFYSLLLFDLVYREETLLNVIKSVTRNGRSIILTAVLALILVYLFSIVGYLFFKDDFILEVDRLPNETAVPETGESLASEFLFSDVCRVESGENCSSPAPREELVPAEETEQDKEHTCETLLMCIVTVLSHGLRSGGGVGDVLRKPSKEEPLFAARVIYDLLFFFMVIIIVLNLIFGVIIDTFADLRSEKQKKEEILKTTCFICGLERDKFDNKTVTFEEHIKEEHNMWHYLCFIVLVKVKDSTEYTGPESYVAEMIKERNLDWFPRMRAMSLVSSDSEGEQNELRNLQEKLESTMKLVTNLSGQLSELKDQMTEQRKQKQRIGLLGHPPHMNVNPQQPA

No constants are given. Whether binding was seen depends on the method and setting. Binding seen in cells or lysates may run through a third protein. Some entries that bind do so weakly or less than the wild type.

For assay [1], the target named is endogenous IP3R1 of HeLa cells (UniProt Q14643). Kind of assay: co-immunoprecipitation from untransfected HeLa cell lysate.
The target is the same in assay [2]. The assay can be described thus: co-immunoprecipitation from DSP-crosslinked HeLa cells, western blot.

B1: endogenous ERp44 of HeLa cells (protein, human, UniProt Q9BS26 30-406, looked up)
chain: EITSLDTENIDEILNNADVALVNFYADWCRFSQMLHPIFEEASDVIKEEFPNENQVVFARVDCDQHSDIAQRYRISKYPTLKLFRNGMMMKREYRGQRSVKALADYIRQQKSDPIQEIRDLAEITTLDRSKRNIIGYFEQKDSDNYRVFERVANILHDDCAFLSAFGDVSKPERYSGDNIIYKPPGHSAPDMVYLGAMTNFDVTYNWIQDKCVPLVREITFENGEELTEEGLPFLILFHMKEDTESLEIFQNEVARQLISEKGTINFLHADCDKFRHPLLHIQKTPADCPVIAIDSFRHMYVFGDFKDVLIPGKLKQFVFDLHSGKLHREFHHGPDPTDTAPGEQAQDVASSPPESSFQKLAPSEYRYTLLRDRDEL
B1: the binding result in assay [1] and in assay [2] was “binds” in each case.
